Laboratory results: the supplement of paper PMC10849652
This is one part of the list.

Amino acid sequences for entries named in this document (tags omitted). A change or cut given only in a name is not applied to a line headed by its entry.
UniProt Q6PI48: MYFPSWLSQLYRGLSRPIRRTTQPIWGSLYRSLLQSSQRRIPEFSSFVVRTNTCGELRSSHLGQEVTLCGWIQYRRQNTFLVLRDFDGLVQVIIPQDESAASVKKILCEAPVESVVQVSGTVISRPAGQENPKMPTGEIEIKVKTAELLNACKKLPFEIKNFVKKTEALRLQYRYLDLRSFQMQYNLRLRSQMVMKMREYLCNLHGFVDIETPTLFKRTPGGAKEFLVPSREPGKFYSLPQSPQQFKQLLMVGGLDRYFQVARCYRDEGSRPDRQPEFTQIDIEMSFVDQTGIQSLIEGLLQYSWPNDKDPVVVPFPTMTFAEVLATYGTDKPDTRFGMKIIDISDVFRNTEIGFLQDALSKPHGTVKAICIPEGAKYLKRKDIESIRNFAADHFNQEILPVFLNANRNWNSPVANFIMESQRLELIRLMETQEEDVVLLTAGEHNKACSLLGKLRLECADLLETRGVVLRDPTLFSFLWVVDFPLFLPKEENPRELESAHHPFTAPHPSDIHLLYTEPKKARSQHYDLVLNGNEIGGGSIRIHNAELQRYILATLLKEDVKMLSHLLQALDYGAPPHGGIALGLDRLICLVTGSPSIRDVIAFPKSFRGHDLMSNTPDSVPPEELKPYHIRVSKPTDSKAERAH
UniProt P11182, whole entry, looked up: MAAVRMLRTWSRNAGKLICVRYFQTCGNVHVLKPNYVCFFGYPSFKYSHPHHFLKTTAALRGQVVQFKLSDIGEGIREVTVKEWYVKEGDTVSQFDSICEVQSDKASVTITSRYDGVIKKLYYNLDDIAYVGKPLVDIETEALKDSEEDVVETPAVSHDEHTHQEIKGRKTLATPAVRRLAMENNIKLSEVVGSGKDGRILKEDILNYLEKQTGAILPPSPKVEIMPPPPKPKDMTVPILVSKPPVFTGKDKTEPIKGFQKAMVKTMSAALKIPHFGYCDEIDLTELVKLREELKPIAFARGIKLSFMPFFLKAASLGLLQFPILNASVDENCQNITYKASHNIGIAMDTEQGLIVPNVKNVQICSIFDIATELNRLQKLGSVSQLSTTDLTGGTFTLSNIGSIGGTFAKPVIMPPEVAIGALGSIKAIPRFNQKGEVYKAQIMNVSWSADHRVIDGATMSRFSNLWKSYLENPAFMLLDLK
UniProt O43583: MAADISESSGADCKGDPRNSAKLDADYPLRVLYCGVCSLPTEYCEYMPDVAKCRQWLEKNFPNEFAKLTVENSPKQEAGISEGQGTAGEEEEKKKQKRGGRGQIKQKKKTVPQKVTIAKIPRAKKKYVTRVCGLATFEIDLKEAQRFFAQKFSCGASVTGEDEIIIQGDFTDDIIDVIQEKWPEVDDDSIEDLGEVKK
UniProt Q96GQ7: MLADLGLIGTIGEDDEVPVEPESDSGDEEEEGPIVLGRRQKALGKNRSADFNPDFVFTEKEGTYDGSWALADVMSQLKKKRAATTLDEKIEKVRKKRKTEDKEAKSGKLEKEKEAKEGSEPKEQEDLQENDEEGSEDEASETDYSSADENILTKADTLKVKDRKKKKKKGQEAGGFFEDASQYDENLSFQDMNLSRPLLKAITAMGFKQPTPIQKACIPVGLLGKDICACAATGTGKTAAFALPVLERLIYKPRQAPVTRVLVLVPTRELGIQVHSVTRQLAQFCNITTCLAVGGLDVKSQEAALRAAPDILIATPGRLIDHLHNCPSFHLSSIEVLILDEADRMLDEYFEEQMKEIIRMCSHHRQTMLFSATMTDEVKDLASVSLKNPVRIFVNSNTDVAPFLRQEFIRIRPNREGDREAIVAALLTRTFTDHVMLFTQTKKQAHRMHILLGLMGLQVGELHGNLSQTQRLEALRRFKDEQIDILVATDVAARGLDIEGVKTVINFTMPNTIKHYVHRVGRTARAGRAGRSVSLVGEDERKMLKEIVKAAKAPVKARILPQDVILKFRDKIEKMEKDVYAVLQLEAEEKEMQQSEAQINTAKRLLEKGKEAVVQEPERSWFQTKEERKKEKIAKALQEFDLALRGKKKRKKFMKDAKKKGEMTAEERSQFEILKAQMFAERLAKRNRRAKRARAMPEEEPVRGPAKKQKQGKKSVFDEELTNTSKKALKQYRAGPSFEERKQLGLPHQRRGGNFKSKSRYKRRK
UniProt Q8TEH3: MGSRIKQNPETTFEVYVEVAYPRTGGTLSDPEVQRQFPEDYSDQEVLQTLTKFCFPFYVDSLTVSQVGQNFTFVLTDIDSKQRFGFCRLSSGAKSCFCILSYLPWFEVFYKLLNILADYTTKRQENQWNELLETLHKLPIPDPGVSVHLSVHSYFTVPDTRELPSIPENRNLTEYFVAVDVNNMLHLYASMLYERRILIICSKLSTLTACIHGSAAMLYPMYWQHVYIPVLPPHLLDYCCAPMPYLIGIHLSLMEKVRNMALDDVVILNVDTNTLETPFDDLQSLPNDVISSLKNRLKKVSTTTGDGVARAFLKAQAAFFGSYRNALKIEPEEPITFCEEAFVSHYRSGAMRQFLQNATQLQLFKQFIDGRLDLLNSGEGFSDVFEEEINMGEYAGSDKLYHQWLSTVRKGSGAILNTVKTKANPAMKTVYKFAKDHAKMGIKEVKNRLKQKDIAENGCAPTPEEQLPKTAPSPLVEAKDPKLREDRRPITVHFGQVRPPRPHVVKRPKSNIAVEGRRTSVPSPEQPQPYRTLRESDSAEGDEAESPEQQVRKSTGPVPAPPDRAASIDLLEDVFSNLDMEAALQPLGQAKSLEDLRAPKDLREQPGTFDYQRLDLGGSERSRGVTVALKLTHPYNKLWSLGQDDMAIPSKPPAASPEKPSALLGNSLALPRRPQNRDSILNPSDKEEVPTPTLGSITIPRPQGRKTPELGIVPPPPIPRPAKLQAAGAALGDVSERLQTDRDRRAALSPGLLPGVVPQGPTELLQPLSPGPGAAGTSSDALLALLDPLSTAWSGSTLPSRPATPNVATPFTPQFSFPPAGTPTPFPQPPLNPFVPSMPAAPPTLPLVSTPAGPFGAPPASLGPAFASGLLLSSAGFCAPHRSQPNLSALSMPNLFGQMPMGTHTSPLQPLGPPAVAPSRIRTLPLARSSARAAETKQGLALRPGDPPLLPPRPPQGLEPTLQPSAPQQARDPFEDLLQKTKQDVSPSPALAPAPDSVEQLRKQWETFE
UniProt O15121: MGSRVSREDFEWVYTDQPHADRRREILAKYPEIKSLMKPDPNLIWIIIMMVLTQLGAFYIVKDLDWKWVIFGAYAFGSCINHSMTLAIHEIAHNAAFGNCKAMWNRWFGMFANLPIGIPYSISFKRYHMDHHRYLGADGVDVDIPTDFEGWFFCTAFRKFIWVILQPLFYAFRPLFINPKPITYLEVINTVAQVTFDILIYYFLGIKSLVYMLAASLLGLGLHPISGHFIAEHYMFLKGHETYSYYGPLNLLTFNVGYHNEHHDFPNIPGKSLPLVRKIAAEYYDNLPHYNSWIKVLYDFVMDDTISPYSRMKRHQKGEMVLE
UniProt P61962: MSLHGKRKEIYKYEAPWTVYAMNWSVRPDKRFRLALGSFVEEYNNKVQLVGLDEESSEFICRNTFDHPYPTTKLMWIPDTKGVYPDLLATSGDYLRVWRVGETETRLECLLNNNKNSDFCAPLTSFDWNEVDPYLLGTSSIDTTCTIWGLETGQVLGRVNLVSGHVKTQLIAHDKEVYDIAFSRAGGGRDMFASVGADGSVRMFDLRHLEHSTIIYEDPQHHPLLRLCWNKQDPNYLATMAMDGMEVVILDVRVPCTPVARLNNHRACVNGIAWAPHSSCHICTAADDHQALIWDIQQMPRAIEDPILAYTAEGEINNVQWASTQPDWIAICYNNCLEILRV
UniProt Q9Y6V7: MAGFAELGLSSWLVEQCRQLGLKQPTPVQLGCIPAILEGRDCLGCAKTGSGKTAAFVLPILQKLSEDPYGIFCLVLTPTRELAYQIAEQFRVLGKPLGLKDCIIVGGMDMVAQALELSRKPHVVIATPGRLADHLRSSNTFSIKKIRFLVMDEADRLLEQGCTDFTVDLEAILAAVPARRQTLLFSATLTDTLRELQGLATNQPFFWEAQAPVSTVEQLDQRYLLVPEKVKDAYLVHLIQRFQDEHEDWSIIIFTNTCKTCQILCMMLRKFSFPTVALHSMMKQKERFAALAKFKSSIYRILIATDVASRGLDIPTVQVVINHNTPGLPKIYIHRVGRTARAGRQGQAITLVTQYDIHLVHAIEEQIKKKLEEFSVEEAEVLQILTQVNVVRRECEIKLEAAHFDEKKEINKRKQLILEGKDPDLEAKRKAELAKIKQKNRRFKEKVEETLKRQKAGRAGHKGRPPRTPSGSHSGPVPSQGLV
UniProt Q6ICB0: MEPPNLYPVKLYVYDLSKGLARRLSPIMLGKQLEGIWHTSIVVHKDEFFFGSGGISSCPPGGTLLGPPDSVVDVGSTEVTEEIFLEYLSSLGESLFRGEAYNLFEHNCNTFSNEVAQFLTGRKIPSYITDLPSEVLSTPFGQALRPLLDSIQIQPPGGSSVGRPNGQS
UniProt P17661, whole entry, looked up: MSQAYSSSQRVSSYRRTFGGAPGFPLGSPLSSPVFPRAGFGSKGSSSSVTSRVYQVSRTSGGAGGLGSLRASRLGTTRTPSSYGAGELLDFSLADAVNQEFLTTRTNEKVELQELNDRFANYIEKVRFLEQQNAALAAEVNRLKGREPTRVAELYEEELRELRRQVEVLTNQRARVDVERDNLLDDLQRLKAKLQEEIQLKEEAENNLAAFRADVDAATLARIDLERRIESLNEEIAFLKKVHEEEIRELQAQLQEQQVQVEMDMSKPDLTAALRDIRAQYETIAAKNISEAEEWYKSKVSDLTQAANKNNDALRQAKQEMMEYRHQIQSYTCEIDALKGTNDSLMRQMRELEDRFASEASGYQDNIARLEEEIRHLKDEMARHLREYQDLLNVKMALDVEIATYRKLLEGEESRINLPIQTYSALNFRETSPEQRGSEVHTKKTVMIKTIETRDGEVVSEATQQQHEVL
UniProt O75064: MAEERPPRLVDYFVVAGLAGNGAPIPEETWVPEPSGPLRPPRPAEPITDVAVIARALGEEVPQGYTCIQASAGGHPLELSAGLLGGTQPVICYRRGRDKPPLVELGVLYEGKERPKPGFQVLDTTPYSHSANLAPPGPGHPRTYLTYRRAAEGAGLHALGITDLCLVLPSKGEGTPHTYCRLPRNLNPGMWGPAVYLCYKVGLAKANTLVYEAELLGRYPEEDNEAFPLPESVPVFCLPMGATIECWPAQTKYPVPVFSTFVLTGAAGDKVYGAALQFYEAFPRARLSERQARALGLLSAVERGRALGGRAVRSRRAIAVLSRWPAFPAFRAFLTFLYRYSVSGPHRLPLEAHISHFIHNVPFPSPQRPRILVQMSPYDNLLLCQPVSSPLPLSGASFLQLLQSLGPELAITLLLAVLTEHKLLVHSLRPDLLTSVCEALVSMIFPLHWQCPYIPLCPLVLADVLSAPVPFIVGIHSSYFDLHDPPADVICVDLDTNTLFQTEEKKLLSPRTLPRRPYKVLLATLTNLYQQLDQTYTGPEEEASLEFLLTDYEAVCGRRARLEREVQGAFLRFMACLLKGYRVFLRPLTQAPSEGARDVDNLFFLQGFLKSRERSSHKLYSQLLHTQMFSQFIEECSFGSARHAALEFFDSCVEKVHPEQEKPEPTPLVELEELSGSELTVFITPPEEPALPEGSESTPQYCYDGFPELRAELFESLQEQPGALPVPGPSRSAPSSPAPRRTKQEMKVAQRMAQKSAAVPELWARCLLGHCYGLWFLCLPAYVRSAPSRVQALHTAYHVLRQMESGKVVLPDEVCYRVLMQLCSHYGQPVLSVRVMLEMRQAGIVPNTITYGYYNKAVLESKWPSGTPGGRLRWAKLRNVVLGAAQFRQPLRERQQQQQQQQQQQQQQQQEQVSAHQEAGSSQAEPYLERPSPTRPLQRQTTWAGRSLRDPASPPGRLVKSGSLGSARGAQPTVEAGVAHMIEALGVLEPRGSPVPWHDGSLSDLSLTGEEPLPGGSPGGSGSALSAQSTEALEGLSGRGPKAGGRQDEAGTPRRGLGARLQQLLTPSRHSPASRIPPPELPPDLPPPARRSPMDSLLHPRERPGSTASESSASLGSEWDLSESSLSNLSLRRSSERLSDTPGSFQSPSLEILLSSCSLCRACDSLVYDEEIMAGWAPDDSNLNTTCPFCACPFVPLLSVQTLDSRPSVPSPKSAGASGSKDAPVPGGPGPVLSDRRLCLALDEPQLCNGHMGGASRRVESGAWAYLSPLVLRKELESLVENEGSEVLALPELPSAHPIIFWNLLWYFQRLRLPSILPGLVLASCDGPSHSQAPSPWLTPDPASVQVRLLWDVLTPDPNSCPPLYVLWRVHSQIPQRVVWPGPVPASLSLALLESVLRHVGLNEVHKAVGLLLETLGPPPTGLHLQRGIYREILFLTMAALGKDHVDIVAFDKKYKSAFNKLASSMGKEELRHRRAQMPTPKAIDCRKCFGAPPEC
UniProt Q9NXF7, whole entry, looked up: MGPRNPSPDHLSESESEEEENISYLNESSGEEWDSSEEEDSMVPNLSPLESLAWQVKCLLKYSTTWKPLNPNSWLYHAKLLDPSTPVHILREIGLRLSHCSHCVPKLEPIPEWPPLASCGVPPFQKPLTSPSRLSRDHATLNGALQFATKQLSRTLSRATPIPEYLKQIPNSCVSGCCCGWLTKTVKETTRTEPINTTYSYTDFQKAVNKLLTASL

Assays:
Test in all cases: log2 fold change, soluble protein after heating vs DMSO (PISA); higher = thermal stabilisation; K562 lysate, 10 uM; active = over 0.2 and 3.5 SD of the protein, either way, in both replicates (recomputed)
nilotinib = compound: Cc1cn(-c2cc(NC(=O)c3ccc(C)c(Nc4nccc(-c5cccnc5)n4)c3)cc(C(F)(F)F)c2)cn1 [nilotinib]
Method in brief: (§1)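 Soluble protein was defined as the supernatant remaining after 21,000xg for 90 min, following pooling of heated aliquots and adjustment to 0.5% NP-40 at 4°C. Before that, crude K562 extract at 1 mg/mL protein in PBS pH 7.4 with 1 mM MgCl2 was treated with 10 μM compound for 30 min and heated for 3 min across 48°C-58°C. Quantification used TMTpro 16plex LC-MS/MS with channel sums equalised, and values are log-two fold changes in thermal stability relative to solvent controls from duplicates.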

[1] = compound: Cc1nc(Nc2n[nH]c3c2CN(C(=O)N[C@H](CN(C)C)c2ccccc2)C3(C)C)c2sccc2n1
Method in brief: as §1

dasatinib = compound: Cc1nc(Nc2ncc(C(=O)Nc3c(C)cccc3Cl)s2)cc(N2CCN(CCO)CC2)n1 [dasatinib]
Method in brief: as §1

[2] = compound: Cc1ncc(-c2ccnc(Nc3ccc(S(C)(=O)=O)cc3)n2)n1C(C)C
Method in brief: as §1

[3] = compound: Cn1cc(-c2ccc3c(c2)CCN3C(=O)Cc2cccc(C(F)(F)F)c2)c2c(N)ncnc21
Method in brief: as §1

quisinostat = compound: Cn1cc(CNCC2CCN(c3ncc(C(=O)NO)cn3)CC2)c2ccccc21 [quisinostat]
Method in brief: as §1

tipifarnib = compound: Cn1cncc1[C@@](N)(c1ccc(Cl)cc1)c1ccc2c(c1)c(-c1cccc(Cl)c1)cc(=O)n2C [tipifarnib]
Method in brief: as §1

[4] = compound: NC(=O)Nc1cc(-c2cccc(F)c2)sc1C(=O)N[C@H]1CCCNC1
Method in brief: as §1

[5] = compound: NC(=O)c1cnc(N[C@@H]2CCCC[C@@H]2N)nc1Nc1cccc(-n2nccn2)c1
Method in brief: as §1

[6] = compound: NC1(c2ccc(-c3nc4ccn5c(=O)[nH]nc5c4cc3-c3ccccc3)cc2)CCC1
Method in brief: as §1

Row | Target | log2 fold change (nilotinib) | log2 fold change [1] | log2 fold change (dasatinib) | log2 fold change [2] | log2 fold change [3] | log2 fold change (quisinostat) | log2 fold change (tipifarnib) | log2 fold change [4] | log2 fold change [5] | log2 fold change [6]
1 | DDX31 (UniProt Q9H8H2) | inactive: -0.035 | inactive: 0.02 | inactive: -0.04 | inactive: -0.017 | inactive: -0.022 | inactive: 0.005 | inactive: 0.018 | inactive: 0.111 | inactive: 0.099 | inactive: 0.027
2 | DERA (UniProt Q9Y315) | inactive: 0.037 | inactive: -0.027 | inactive: 0.057 | inactive: 0.006 | inactive: -0.017 | inactive: -0.008 | inactive: 0.08 | inactive: -0.017 | inactive: -0.021 | inactive: 0
3 | DARS2 (UniProt Q6PI48) | inactive: -0.015 | inactive: -0.012 | inactive: -0.038 | inactive: -0.017 | inactive: 0.028 | inactive: 0 | inactive: -0.015 | inactive: 0.055 | inactive: 0.011 | inactive: -0.015
4 | DDR1 isoform 5 (UniProt Q08345) | inactive: 0.036 | inactive: 0.013 | inactive: 0.083 | inactive: -0.216 | inactive: 0.103 | inactive: 0.045 | inactive: -0.012 | inactive: -0.054 |  | 
5 | DDHD1 (UniProt Q8NEL9) | inactive: 0.012 | inactive: 0.018 | inactive: 0.022 | inactive: 0.026 | inactive: 0.036 | inactive: -0.129 | inactive: -0.02 | inactive: -0.095 | inactive: -0.021 | inactive: -0.039
6 | DDA1 (UniProt Q9BW61) | inactive: 0.003 | inactive: 0.008 | inactive: -0.011 | inactive: -0.056 | inactive: 0.006 | inactive: -0.006 | inactive: -0.008 | inactive: -0.023 | inactive: -0.027 | inactive: 0.023
7 | DECR1 (UniProt Q16698) | inactive: -0.008 | inactive: 0.034 | inactive: -0.056 | inactive: 0.007 | inactive: 0.02 | inactive: 0.084 | inactive: 0.04 | inactive: -0.01 | inactive: -0.017 | inactive: 0.028
8 | DDHD2 (UniProt O94830) | inactive: 0.017 | inactive: 0.007 | inactive: 0.025 | inactive: -0.012 | inactive: 0 | inactive: -0.013 | inactive: -0.024 | inactive: 0.039 | inactive: -0.019 | inactive: 0.017
9 | DBT (UniProt P11182) | inactive: 0.028 | inactive: -0.028 | inactive: -0.059 | inactive: -0.007 | inactive: 0.032 | inactive: -0.032 | inactive: -0.002 | inactive: 0.015 | inactive: 0.005 | inactive: 0.001
10 | DAPK1 isoform 3 (UniProt P53355) | inactive: -0.061 | inactive: 0.017 | inactive: -0.052 | inactive: -0.146 | inactive: -0.049 | inactive: -0.135 | inactive: 0.056 | active: 0.812 | inactive: -0.103 | inactive: -0.075
11 | DBN1 (UniProt Q16643) | inactive: -0.018 | inactive: 0.035 | inactive: 0.028 | inactive: 0.011 | inactive: -0.016 | inactive: -0.011 | inactive: -0.008 | inactive: -0.021 | inactive: -0.002 | inactive: -0.007
12 | DDX19B (UniProt Q9UMR2) | inactive: -0.004 | inactive: 0.004 | inactive: -0.014 | inactive: -0.002 | inactive: -0.008 | inactive: -0.071 | inactive: -0.014 | inactive: 0.02 | inactive: 0.002 | inactive: 0.006
13 | DENR (UniProt O43583) | inactive: -0.008 | inactive: -0.03 | inactive: -0.001 | inactive: 0.007 | inactive: 0.016 | inactive: 0.105 | inactive: -0.015 | inactive: 0.023 | inactive: 0.009 | inactive: 0.006
14 | DERPC (UniProt P0CG12) | inactive: 0.079 | inactive: 0.042 | inactive: 0.081 | inactive: 0.108 | inactive: -0.157 | inactive: 0.073 | inactive: -0.069 | inactive: -0.054 | inactive: -0.022 | inactive: 0.087
15 | DCTN1 (UniProt Q14203) | inactive: 0.008 | inactive: -0.005 | inactive: -0.025 | inactive: 0.012 | inactive: 0.017 | inactive: 0.001 | inactive: -0.001 | inactive: 0.011 | inactive: 0.009 | inactive: -0.007
16 | DDX55 (UniProt Q8NHQ9) | inactive: -0.014 | inactive: 0.03 | inactive: 0.006 | inactive: 0 | inactive: 0.074 | inactive: -0.021 | inactive: -0.038 | inactive: 0.049 | inactive: 0.032 | inactive: -0.046
17 | DDX27 (UniProt Q96GQ7) | inactive: -0.007 | inactive: 0.001 | inactive: 0.004 | inactive: -0.004 | inactive: 0.013 | inactive: -0.007 | inactive: 0.025 | inactive: -0.006 | inactive: 0 | inactive: -0.024
18 | DERL1 (UniProt Q9BUN8) | inactive: 0.037 | inactive: 0.071 | inactive: 0.014 | inactive: -0.009 | inactive: 0.022 | inactive: -0.035 | inactive: -0.101 | inactive: -0.035 | inactive: 0.049 | inactive: -0.038
19 | DCAF4 (UniProt Q8WV16) | inactive: 0.019 | inactive: 0.089 | inactive: -0.007 | inactive: -0.131 | inactive: -0.073 | inactive: -0.152 | inactive: 0.138 | inactive: -0.001 | inactive: -0.16 | 
20 | DENND1A isoform 6 (UniProt Q8TEH3) | inactive: -0.111 | inactive: 0.015 | inactive: -0.135 | inactive: -0.01 | inactive: 0.024 | inactive: -0.11 | inactive: 0.065 | inactive: 0.021 | inactive: -0.08 | inactive: -0.074
21 | DEGS1 (UniProt O15121) | inactive: 0.008 | inactive: -0.031 | inactive: -0.056 | inactive: 0.002 | inactive: -0.122 | inactive: -0.042 | inactive: 0.062 | inactive: 0.008 | inactive: 0 | inactive: 0.098
22 | DARS (UniProt P14868) | inactive: 0.01 | inactive: -0.004 | inactive: -0.032 | inactive: -0.015 | inactive: 0.063 | inactive: -0.007 | inactive: 0.01 | inactive: 0.044 | inactive: -0.008 | inactive: 0.002
23 | DCTN1 isoform 4 (UniProt Q14203) | inactive: 0.304 | inactive: -0.331 | inactive: -0.163 | inactive: -0.288 | inactive: -0.051 | inactive: -0.064 | inactive: -0.064 | inactive: 0.074 | inactive: 0.139 | inactive: 0.169
24 | DCAF8 (UniProt Q5TAQ9) | inactive: 0.038 | inactive: -0.044 | inactive: 0.057 | inactive: -0.075 | inactive: 0.014 | inactive: -0.031 | inactive: 0.113 | inactive: -0.029 | inactive: -0.006 | inactive: 0.031
25 | DCAF7 (UniProt P61962) | inactive: 0.021 | inactive: 0.019 | inactive: -0.019 | inactive: 0.02 | inactive: -0.009 | inactive: -0.043 | inactive: -0.013 | inactive: 0.066 | inactive: -0.008 | inactive: -0.002
26 | DDX49 (UniProt Q9Y6V7) | inactive: 0.044 | inactive: -0.058 | inactive: -0.027 | inactive: 0.043 | inactive: 0.175 | inactive: -0.022 | inactive: -0.04 | inactive: 0.064 | inactive: 0.027 | inactive: -0.006
27 | DESI1 (UniProt Q6ICB0) | inactive: 0.068 | inactive: 0.049 | inactive: -0.062 | inactive: -0.051 | inactive: 0.023 | inactive: -0.077 | inactive: -0.068 | inactive: 0.1 |  | 
28 | DES (UniProt P17661) | inactive: 0.009 | inactive: -0.04 | inactive: -0.024 | inactive: 0.004 | inactive: -0.057 | inactive: -0.162 | inactive: -0.008 | inactive: 0 | inactive: 0.041 | inactive: 0.034
29 | DENND4B (UniProt O75064) | inactive: -0.049 | inactive: 0.007 | inactive: -0.074 | inactive: 0.038 | inactive: -0.013 | inactive: -0.058 | inactive: 0.074 | inactive: 0.042 | inactive: 0.009 | inactive: 0.027
30 | DCAF16 (UniProt Q9NXF7) | inactive: 0.03 | inactive: 0.004 | inactive: -0.014 | inactive: 0.021 | inactive: 0.027 | inactive: -0.037 | inactive: -0.067 | inactive: 0.038 | inactive: 0.029 | inactive: 0.038

Eight entries from above in another layout:
Row	Target	log2 fold change (nilotinib)	log2 fold change [1]	log2 fold change (dasatinib)	log2 fold change [2]	log2 fold change [3]	log2 fold change (quisinostat)	log2 fold change (tipifarnib)	log2 fold change [4]	log2 fold change [5]	log2 fold change [6]
7	DECR1 (UniProt Q16698)	inactive: -0.008	inactive: 0.034	inactive: -0.056	inactive: 0.007	inactive: 0.02	inactive: 0.084	inactive: 0.04	inactive: -0.01	inactive: -0.017	inactive: 0.028
9	DBT (UniProt P11182)	inactive: 0.028	inactive: -0.028	inactive: -0.059	inactive: -0.007	inactive: 0.032	inactive: -0.032	inactive: -0.002	inactive: 0.015	inactive: 0.005	inactive: 0.001
10	DAPK1 isoform 3 (UniProt P53355)	inactive: -0.061	inactive: 0.017	inactive: -0.052	inactive: -0.146	inactive: -0.049	inactive: -0.135	inactive: 0.056	active: 0.812	inactive: -0.103	inactive: -0.075
13	DENR (UniProt O43583)	inactive: -0.008	inactive: -0.03	inactive: -0.001	inactive: 0.007	inactive: 0.016	inactive: 0.105	inactive: -0.015	inactive: 0.023	inactive: 0.009	inactive: 0.006
17	DDX27 (UniProt Q96GQ7)	inactive: -0.007	inactive: 0.001	inactive: 0.004	inactive: -0.004	inactive: 0.013	inactive: -0.007	inactive: 0.025	inactive: -0.006	inactive: 0	inactive: -0.024
24	DCAF8 (UniProt Q5TAQ9)	inactive: 0.038	inactive: -0.044	inactive: 0.057	inactive: -0.075	inactive: 0.014	inactive: -0.031	inactive: 0.113	inactive: -0.029	inactive: -0.006	inactive: 0.031
28	DES (UniProt P17661)	inactive: 0.009	inactive: -0.04	inactive: -0.024	inactive: 0.004	inactive: -0.057	inactive: -0.162	inactive: -0.008	inactive: 0	inactive: 0.041	inactive: 0.034
30	DCAF16 (UniProt Q9NXF7)	inactive: 0.03	inactive: 0.004	inactive: -0.014	inactive: 0.021	inactive: 0.027	inactive: -0.037	inactive: -0.067	inactive: 0.038	inactive: 0.029	inactive: 0.038
